Assay results reported in article doi:10.1101/2025.04.11.648407.
Results are given in words; binding and its absence hold for the method and conditions named. In cells and extracts the contact can be indirect. Sequences can lack the tags named with a protein.

Biological target: T1, LEPROTL1-HA (human) (UniProt O95214)
T1 sequence: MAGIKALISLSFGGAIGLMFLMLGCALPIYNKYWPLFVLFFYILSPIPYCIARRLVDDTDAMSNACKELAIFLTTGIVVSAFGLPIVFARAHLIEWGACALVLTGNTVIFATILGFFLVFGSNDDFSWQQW
Assay: co-IP

- binding: no binding
Substance: cathepsin D (from UniProt P07339) (enzyme)
